The values below come from article PMC4811495.

Chains of the proteins cited; added tags and fusions are not shown.
UniProt P62136: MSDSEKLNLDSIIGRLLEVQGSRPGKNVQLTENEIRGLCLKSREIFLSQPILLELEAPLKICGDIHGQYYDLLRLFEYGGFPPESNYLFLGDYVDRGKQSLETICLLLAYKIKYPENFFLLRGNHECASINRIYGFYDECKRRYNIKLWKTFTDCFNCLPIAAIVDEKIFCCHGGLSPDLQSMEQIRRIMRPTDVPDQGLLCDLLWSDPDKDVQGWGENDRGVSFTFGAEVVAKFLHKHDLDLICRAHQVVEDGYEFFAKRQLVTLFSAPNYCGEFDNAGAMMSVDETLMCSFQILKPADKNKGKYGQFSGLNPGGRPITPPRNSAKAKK
UniProt P10275: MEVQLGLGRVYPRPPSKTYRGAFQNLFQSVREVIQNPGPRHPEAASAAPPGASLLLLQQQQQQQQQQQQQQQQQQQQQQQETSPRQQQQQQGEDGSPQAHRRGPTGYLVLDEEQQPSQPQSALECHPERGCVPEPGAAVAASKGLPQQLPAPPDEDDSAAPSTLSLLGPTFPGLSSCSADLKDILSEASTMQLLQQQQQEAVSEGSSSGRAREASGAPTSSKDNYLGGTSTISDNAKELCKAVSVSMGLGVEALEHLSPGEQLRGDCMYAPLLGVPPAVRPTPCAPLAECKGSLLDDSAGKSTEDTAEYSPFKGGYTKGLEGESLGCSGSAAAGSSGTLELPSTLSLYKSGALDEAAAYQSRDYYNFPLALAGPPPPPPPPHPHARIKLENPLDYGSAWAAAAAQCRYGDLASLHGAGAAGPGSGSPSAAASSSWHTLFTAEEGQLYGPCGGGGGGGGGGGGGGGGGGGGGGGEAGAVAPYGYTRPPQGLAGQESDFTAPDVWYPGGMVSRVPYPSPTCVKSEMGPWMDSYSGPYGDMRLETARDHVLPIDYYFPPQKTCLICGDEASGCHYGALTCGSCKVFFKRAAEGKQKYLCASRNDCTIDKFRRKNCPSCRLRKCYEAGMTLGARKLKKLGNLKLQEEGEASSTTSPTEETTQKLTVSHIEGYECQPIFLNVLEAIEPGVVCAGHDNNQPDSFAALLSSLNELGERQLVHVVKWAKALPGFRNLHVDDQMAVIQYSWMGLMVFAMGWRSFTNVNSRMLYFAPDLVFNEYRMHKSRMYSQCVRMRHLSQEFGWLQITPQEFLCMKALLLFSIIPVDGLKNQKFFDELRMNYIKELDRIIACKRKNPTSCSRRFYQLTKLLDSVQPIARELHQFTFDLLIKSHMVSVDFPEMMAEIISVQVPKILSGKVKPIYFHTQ
UniProt Q00987: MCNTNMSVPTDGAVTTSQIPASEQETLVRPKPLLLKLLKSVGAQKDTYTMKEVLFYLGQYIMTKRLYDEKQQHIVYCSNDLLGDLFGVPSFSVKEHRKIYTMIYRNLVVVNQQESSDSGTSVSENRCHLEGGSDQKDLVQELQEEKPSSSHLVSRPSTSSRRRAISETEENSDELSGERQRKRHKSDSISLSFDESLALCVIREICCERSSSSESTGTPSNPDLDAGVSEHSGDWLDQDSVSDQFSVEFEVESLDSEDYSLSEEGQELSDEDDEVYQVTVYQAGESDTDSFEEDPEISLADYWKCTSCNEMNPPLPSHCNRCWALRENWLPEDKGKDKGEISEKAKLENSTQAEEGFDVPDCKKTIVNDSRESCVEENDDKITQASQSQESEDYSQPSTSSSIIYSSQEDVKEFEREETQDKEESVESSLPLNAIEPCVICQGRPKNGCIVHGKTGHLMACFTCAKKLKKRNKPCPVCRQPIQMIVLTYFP

No constants are given. Whether binding was seen depends on the method and setting. In cells and extracts the contact can be indirect. Some results given as binding are weak or reduced against the parent protein; the word gives no strength.

Experiment [1] deals with Flag-tagged PP1α (in HeLa) (UniProt P62136). Nature of the experiment: co-IP; HeLa cells transfected with Flag-PP1 and HA-MDM2 or HA-SKP2, without or with AR; overnight in androgen-depleted medium; anti-Flag beads; blotting.
For experiment [2], the target named is endogenous PP1α (HeLa) (human (endogenous in HeLa)) (UniProt P62136). Nature of the experiment: pull-down; microcystin-agarose beads precipitate endogenous PP1α from HeLa cells transfected with AR, overnight in androgen-depleted medium with 10 nM DHT; blotting.
Experiment [3] concerns the target Flag-tagged AR wild-type (human) (UniProt P10275). Put plainly: co-IP; 293T and Cos1 cells co-transfected with PP1α and Flag-tagged AR; triton lysis buffer; anti-Flag-M2 beads, 4°C, 2 hr; blotting.
In experiment [4] the target is Flag-tagged PP1α (in 293T) (UniProt P62136). Nature of the experiment: co-IP; 293T cells co-transfected with Flag-PP1α and HA-tagged AR constructs, in medium with 5% FBS or overnight in androgen-depleted medium; triton lysis buffer; anti-Flag-M2 beads, 4°C, 2 hr; blotting.

Regarding HA-MDM2 (from UniProt Q00987 1-491), the binding result in experiment [1] is on record as “binds”.
For the substance “AR wild-type (transfected in HeLa) (from UniProt P10275 1-920)”, the binding result in experiment [2] is recorded as “binds”.
“protein phosphatase 1 catalytic subunit (PP1α), untagged (from UniProt P62136 1-330) (enzyme)”: in experiment [3], the binding result is “binds”.
As to “HA-HA-AR full-length (aa 1-919) (from UniProt P10275 1-920)”, the binding result in experiment [4] was “binds”.
